Laboratory results: PubChem BioAssay AID1259308 (NCATS, 2017)
The deposit covers about 59,000 reagents; below is an unselected part. Over the whole deposit, about 1,510 (2.6%) were called active. 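Calls use total luciferase alone and ignore viability, so some active siRNAs may act by altering cell number.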 Reagents against one gene are numbered here. Not all columns of the deposit are shown. No sequences are given here.

Screen: 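Genes whose loss raises luciferase production in HEK293 cells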 (primary screen)
System: human HEK293 embryonic kidney cells stably expressing firefly luciferase (HEK-CMV-Luc2-Hygro)
Reagents: single siRNA against human genes, 0.8 pmol siRNA per well
Time to read-out: 72 h
Measured: 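Luciferase light (ONE-Glo) measured on one replicate plate set and viability (CellTiter-Glo) on the other, scaled to a negative control siRNA, with robust z-scores and luciferase per cell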
Direction: total luciferase, z-score and total luciferase, % of control: higher = more reporter protein produced
Hit rule: 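An siRNA counts as active if its total luciferase robust z-score exceeds 3; genes with two or more such siRNAs out of three were retested with fresh siRNAs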
Calls: active = raised luciferase; inactive = no rise

target gene	reagent	total luciferase, z-score	total luciferase, % of control	Call
PHF3	1	1.56	113	inactive
PHF3	2	-0.483	72.3	inactive
PHF3	3	0.141	84.7	inactive
GNRHR	1	3.43	150	active
GNRHR	2	-1.18	58.4	inactive
GNRHR	3	0.286	87.6	inactive
CA3	1	-0.189	78.1	inactive
CA3	2	-0.761	66.8	inactive
CA3	3	-0.613	69.7	inactive
P2RY4	1	-0.601	69.9	inactive
P2RY4	2	0.593	93.7	inactive
P2RY4	3	-0.749	67	inactive
ZNF16	1	-0.0464	81	inactive
ZNF16	2	1.09	104	inactive
ZNF16	3	-0.345	75	inactive
B3GALT1	1	0.351	88.9	inactive
B3GALT1	2	-0.192	78.1	inactive
B3GALT1	3	0.346	88.8	inactive
TAF11L1	1	0.671	95.2	inactive
TAF11L1	2	0.236	86.6	inactive
TAF11L1	3	1.39	110	inactive
UBE2Q2P1	1	-0.132	79.3	inactive
UBE2Q2P1	2	0.883	99.5	inactive
UBE2Q2P1	3	-1.61	49.8	inactive
TEKTL1	1	-0.309	75.7	inactive
TEKTL1	2	-2.47	32.7	inactive
TEKTL1	3	-1.15	58.9	inactive
PLA2G6	1	-0.18	78.3	inactive
PLA2G6	2	-1.15	59	inactive
PLA2G6	3	0.404	89.9	inactive
FXR1	1	-0.369	74.6	inactive
FXR1	2	-0.718	67.6	inactive
FXR1	3	-1.01	61.8	inactive
NUTM2E	1	0.307	88	inactive
NUTM2E	2	1.57	113	inactive
NUTM2E	3	0.461	91	inactive
FCRL5	1	-2.89	24.3	inactive
FCRL5	2	0.605	93.9	inactive
FCRL5	3	-2.04	41.3	inactive
SLC25A6	1	-0.929	63.4	inactive
SLC25A6	2	-1.07	60.6	inactive
SLC25A6	3	1.59	113	inactive
PSMG3	1	-1.06	60.7	inactive
PSMG3	2	-1.91	43.9	inactive
PSMG3	3	2.14	124	inactive
NUBP2	1	-0.405	73.8	inactive
NUBP2	2	-0.195	78	inactive
NUBP2	3	-0.332	75.3	inactive
TOMM20	1	-0.289	76.1	inactive
TOMM20	2	0.489	91.6	inactive
TOMM20	3	0.58	93.4	inactive
PRR25	1	-0.533	71.3	inactive
PRR25	2	1.23	106	inactive
PRR25	3	0.524	92.3	inactive
ATG2A	1	-2.86	25	inactive
ATG2A	2	0.0274	82.4	inactive
ATG2A	3	-0.268	76.5	inactive
LHX6	1	-0.247	77	inactive
LHX6	2	0.441	90.7	inactive
LHX6	3	-2.52	31.7	inactive
LINC02604	1	0.368	89.2	inactive
LINC02604	2	0.00938	82.1	inactive
LINC02604	3	-1.51	51.8	inactive
SPMIP3	1	-0.569	70.6	inactive
SPMIP3	2	0.03	82.5	inactive
SPMIP3	3	-0.76	66.8	inactive
TAF1D	1	0.628	94.4	inactive
TAF1D	2	-1.06	60.9	inactive
TAF1D	3	0.0819	83.5	inactive
ZBTB2	1	-2.35	35.2	inactive
ZBTB2	2	-1.6	50	inactive
ZBTB2	3	0.613	94.1	inactive
OR13D1	1	-2.65	29.1	inactive
OR13D1	2	-1.67	48.6	inactive
OR13D1	3	0.0741	83.4	inactive

Reagents listed so far with an active call:
target gene	reagent	total luciferase, z-score	total luciferase, % of control	Call
GNRHR	1	3.43	150	active
